Screening data, single-dose tests

The chains behind the UniProt entries cited, without tags or fusion partners. Residues count along the entry.
UniProt P9WFT3, whole entry: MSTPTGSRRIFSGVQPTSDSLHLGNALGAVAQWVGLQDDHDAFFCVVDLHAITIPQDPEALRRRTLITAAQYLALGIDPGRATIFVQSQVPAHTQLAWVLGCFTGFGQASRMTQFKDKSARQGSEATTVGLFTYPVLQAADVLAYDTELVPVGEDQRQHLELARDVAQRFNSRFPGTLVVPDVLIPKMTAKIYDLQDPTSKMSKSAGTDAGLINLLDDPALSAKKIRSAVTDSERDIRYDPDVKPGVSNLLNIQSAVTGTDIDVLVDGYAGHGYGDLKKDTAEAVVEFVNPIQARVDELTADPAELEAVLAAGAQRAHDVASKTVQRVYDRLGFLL
UniProt Q8IDJ8, 1-583: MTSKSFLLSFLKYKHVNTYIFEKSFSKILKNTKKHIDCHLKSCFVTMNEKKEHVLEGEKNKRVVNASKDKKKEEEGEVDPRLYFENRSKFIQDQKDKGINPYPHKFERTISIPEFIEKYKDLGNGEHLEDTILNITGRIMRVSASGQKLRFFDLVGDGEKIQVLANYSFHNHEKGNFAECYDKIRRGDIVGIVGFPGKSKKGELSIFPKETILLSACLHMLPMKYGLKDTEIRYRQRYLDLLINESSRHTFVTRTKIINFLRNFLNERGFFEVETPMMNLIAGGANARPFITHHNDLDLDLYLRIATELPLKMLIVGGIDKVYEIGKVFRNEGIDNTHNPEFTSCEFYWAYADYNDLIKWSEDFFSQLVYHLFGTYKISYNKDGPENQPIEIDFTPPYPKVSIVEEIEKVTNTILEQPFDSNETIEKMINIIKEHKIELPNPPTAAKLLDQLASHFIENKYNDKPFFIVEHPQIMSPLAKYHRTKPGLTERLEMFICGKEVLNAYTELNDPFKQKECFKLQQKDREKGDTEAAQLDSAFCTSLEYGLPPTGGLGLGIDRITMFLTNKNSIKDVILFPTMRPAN
UniProt P9WNZ1, whole entry: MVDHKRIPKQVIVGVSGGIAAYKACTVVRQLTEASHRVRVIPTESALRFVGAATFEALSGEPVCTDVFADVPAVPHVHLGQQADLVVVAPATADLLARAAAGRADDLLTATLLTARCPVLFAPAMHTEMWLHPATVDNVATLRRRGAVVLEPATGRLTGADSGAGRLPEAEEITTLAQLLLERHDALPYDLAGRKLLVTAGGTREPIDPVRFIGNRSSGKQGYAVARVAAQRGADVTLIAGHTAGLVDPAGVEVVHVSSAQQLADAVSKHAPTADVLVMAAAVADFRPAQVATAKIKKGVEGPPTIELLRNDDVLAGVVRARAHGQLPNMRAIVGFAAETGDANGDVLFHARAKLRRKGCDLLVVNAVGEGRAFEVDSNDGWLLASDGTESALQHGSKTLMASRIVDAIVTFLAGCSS
UniProt P9WPC5, whole entry: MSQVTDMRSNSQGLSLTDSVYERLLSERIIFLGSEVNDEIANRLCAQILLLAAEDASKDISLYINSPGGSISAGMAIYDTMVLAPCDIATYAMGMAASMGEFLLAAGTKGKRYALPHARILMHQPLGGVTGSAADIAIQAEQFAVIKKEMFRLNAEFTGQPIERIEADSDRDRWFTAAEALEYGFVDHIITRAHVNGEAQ
UniProt P9WPC3, whole entry partner: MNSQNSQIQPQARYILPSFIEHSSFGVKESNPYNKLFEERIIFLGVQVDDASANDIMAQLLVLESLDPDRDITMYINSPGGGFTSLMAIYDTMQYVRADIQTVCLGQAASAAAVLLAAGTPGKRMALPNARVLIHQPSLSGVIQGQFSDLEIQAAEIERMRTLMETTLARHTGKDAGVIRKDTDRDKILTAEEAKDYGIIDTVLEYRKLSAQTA
UniProt Q4DA54, 1-478: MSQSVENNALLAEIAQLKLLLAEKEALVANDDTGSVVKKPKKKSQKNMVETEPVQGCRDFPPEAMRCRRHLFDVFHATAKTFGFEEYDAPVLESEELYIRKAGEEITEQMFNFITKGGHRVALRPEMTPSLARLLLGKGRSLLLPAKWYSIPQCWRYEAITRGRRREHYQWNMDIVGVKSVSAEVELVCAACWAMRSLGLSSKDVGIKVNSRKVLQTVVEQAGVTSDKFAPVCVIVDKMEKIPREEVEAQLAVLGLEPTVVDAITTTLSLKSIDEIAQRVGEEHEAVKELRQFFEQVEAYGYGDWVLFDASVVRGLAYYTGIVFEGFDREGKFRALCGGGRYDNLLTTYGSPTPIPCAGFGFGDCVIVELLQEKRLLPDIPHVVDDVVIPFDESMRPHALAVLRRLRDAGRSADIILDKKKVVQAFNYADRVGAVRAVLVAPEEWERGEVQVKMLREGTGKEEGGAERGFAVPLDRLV

MtTrpRS: 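Tryptophan-tRNA ligase, Mycobacterium tuberculosis (UniProt P9WFT3). Enzyme assay of tryptophanyl-tRNA synthetase; the read-out is not stated. Tested at 10 µM. Higher most likely means stronger inhibition; the record gives no direction and few retests gave an IC50. Of about 65,000 compounds tested this way, about 64 (0.098%) reached 50% or more in at least one test.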
PfKRS1: 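Lysine-tRNA ligase, Plasmodium falciparum 3D7 (UniProt Q8IDJ8). Enzyme assay of the cytosolic lysyl-tRNA synthetase in 384-well plates, read by luminescence. Compounds at 30 µM. Higher reads as stronger inhibition, judged from the few compounds that gave an IC50. About 69,000 compounds were tested under these conditions; 0.071% (about 49) showed 50% or more at least once.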
CoaBC: 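Coenzyme A biosynthesis protein CoaBC, Mycobacterium tuberculosis (UniProt P9WNZ1). Enzyme assay of CoaBC with a phosphate dye (Biomol Green) read at 650 nm. Tested at 30 µM. Higher reads as stronger inhibition, judged from the few compounds that gave an IC50. Most strong results did not repeat in a second test. Of about 67,000 compounds tested this way, about 40 (0.06%) reached 50% or more in at least one test.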
ClpP1P2: 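ClpP1P2, Mycobacterium tuberculosis (UniProt P9WPC5 and UniProt P9WPC3). Protease assay of ClpP1P2, read by the AMC dye that it sets free. Tested at 50 µM. Higher reads as stronger inhibition, judged from the few compounds that gave an IC50. Most other retested compounds had strongly negative values. Of about 69,000 compounds tested this way, about 10 (0.015%) reached 50% or more in at least one test.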
TcHisRS: 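Histidine-tRNA ligase, Trypanosoma cruzi CL Brener (UniProt Q4DA54). Enzyme assay of histidyl-tRNA synthetase; the read-out is not stated. Compounds at 30 µM. Direction is inferred from retests: higher values go with stronger inhibition. Size under these conditions: about 69,000 compounds, about 31 of them at 50% or above in at least one test.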

Each number is a percent effect as filed. The record does not define 0% and 100%; most values in the screen are far below 50% and negative numbers occur (in some assays of this library far below -100). This is an unselected part of the compounds tested.

With COc1cc(CNC2CCN(c3ccccc3)C2)cc(OC)c1OC (centres undefined) the screen gave MtTrpRS: 0.1037%; PfKRS1: 3.651%; CoaBC: 4.126%; ClpP1P2: 0.2982%; TcHisRS: 8.621%. CC(=O)N1CCC(NC2(Cc3cc(C(C)(C)O)on3)COC2)CC1 gave MtTrpRS: -2.509%; PfKRS1: 0.7908%; CoaBC: 0.9677%; ClpP1P2: -7.841%; TcHisRS: 1.493%. Result for OC1(Cn2ccc3ncccc32)CCN(Cc2ccccc2F)CC1 was PfKRS1: 5.367%; CoaBC: 0.7353%; ClpP1P2: -2.87%; TcHisRS: 12.77%. For Cc1cc(CN2CCN(C(=O)NCc3ccco3)CC2)no1 the result was MtTrpRS: 70.08%; PfKRS1: -3.107%; CoaBC: 2.727%; ClpP1P2: -17.38%; TcHisRS: 2.305%. With Cc1cnn(CC2CCCCN2C(=O)c2cccc(C(N)=O)c2)c1 (centres undefined) the screen gave MtTrpRS: 4.013%; PfKRS1: 2.587%; CoaBC: 5.483%; ClpP1P2: -40.12%; TcHisRS: 4.956%. For CCOc1nnc(CN2CCN(CCOC)C(CC)C2)s1 (centres undefined) the result was MtTrpRS: 0.2172%; PfKRS1: 2.264%; CoaBC: -6.198%; ClpP1P2: 15.61%; TcHisRS: 5%.

Result for CCC(NC(=O)CN(C)Cc1ccc(C)o1)c1ccc(Br)cc1 (centres undefined) was MtTrpRS: -3.402%; PfKRS1: 8.78%; CoaBC: 5.159%; ClpP1P2: 4.217%; TcHisRS: 2.041%. Result for COc1cccc(OC2CN(C(=O)C3CCCN(C(=O)N(C)C)C3)C2)c1 (centres undefined) was MtTrpRS: 6.621%; PfKRS1: -5.197%; CoaBC: 11.46%; ClpP1P2: 4.439%; TcHisRS: 1.299%. With Oc1cc(CCC2CCCCN2)cc(-c2ccncc2)c1 (centres undefined) the screen gave MtTrpRS: -3.493%; PfKRS1: -4.787%; CoaBC: -20.26%; ClpP1P2: 3.444%; TcHisRS: 4.132%. For Cc1ccc(CNc2ccccc2SCCC(N)=O)s1 the result was MtTrpRS: 0.2571%; PfKRS1: 2.804%; CoaBC: 1.665%; ClpP1P2: -9.837%; TcHisRS: 4.294%. For Cc1cn(CC(=O)N(C)Cc2cccc3ncccc23)c(=O)[nH]c1=O the result was MtTrpRS: 7.78%; PfKRS1: -2.398%; CoaBC: -0.8547%; ClpP1P2: -1.459%; TcHisRS: 2.703%. NC(=O)c1cnc(NC2CC2)nc1CCNC(=O)Cc1ccccc1 read MtTrpRS: -4.144%; PfKRS1: 5.826%; CoaBC: 4.038%; ClpP1P2: -3.864%; TcHisRS: 2.308%.

Result for CC(C)(C)N1CC(C(=O)N2CCN(CCc3ccccc3)CC2)CC1=O (centres undefined) was MtTrpRS: 0.7105%; PfKRS1: 11.21%; CoaBC: -3.125%; ClpP1P2: 3.673%; TcHisRS: 4.564%. With O=C(N1CCOCC1)N1CCc2[nH]nc(COc3cccc(Cl)c3)c2C1 the screen gave MtTrpRS: -5.094%; PfKRS1: 0.2492%; CoaBC: 2.419%; ClpP1P2: -9.927%; TcHisRS: 10.61%. With O=C(c1cnc(-c2ccccn2)s1)N1CCCC1Cn1cccn1 (centres undefined) the screen gave MtTrpRS: -7.43%; PfKRS1: 0.09643%; CoaBC: -3.602%; ClpP1P2: -6.328%; TcHisRS: 4.871%. With O=C(Nc1ccccc1)NC1CCN(C2CCOC2)CC1 (centres undefined) the screen gave MtTrpRS: -4.216%; PfKRS1: 1.138%; CoaBC: -2.439%; ClpP1P2: -9.522%; TcHisRS: 8.824%. CN(C)CCNC(=O)C1Cc2nc(-c3ccsc3)sc2N1CC1CC1 (centres undefined) gave MtTrpRS: -0.9752%; PfKRS1: -0.07076%; CoaBC: -11.47%; ClpP1P2: -24.26%; TcHisRS: 8.571%. For Cc1cnn(-c2ccc(S(=O)(=O)N(C)CC(C)(CO)CO)cc2F)c1 the result was MtTrpRS: 5.982%; PfKRS1: -2.672%; CoaBC: 13.43%; ClpP1P2: -10.46%; TcHisRS: 0%.

For CCN(CC)CCCNCc1cc2cc(C)ccc2[nH]c1=O the result was MtTrpRS: -11.58%; PfKRS1: 0.9584%; CoaBC: -4.049%; ClpP1P2: 3.302%; TcHisRS: 9.302%. For CCOc1ncccc1NC(=O)N1CCCC1c1cc(C)no1 (centres undefined) the result was MtTrpRS: -1.916%; PfKRS1: 0.8084%; CoaBC: 8.733%; ClpP1P2: 0.5457%; TcHisRS: 12.64%. Cc1noc(CN2CCOC(CN(C)C)C2)n1 (centres undefined) read MtTrpRS: -3.984%; PfKRS1: -3.563%; CoaBC: -7.757%; ClpP1P2: 20.8%; TcHisRS: -4.215%. CC(=O)N1CCOCC2(CN(Cc3ccccn3)CCO2)C1 (centres undefined) gave MtTrpRS: -0.5247%; PfKRS1: -0.9729%; CoaBC: 2.157%; ClpP1P2: -1.993%; TcHisRS: 4.865%. CCS(=O)(=O)N1CCC2(CC1)CN(C(=O)N(C)C)Cc1ccccc12 gave MtTrpRS: -1.698%; PfKRS1: 2.684%; CoaBC: 0%; ClpP1P2: -13.03%; TcHisRS: -4.854%. CC(O)CN1CCN(C(=O)c2ccc(N(C)C)nc2)CC1 (centres undefined) read MtTrpRS: 1.039%; PfKRS1: -5.02%; CoaBC: 2.41%; ClpP1P2: 24.63%; TcHisRS: -4.58%.

CC(C)OCc1nn(C)c2c1CCN(Cc1ccco1)C2 gave MtTrpRS: -6.882%; PfKRS1: 1.377%; CoaBC: 4.673%; ClpP1P2: -3.476%; TcHisRS: 8.696%. CCc1nc(C(=O)N(CC)CC(=O)N(C)C)nn1-c1ccccc1Cl read MtTrpRS: -0.1971%; PfKRS1: 5.051%; CoaBC: -3.037%; ClpP1P2: -1.713%; TcHisRS: 4.867%. For Cc1ncsc1CCN(C)C(=O)CN1C(=O)OC[C@@H]1c1ccccc1 the result was MtTrpRS: 5.033%; PfKRS1: 0.4646%; CoaBC: 2.317%; ClpP1P2: -7.936%; TcHisRS: 6.627%. For Cc1nn(C)c(Cl)c1CNCc1ccc(OCC(N)=O)cc1 the result was MtTrpRS: -2.111%; PfKRS1: 2.07%; CoaBC: 6.389%; ClpP1P2: -1.814%; TcHisRS: -2.642%. For Cc1ccnc(N2CCCC(c3nccn3C(C)C)C2)n1 (centres undefined) the result was MtTrpRS: 5.578%; PfKRS1: 11.92%; CoaBC: -3.342%; ClpP1P2: 4.945%; TcHisRS: 6.704%.

Once more, the final 3:

SMILES,MtTrpRS,PfKRS1,CoaBC,ClpP1P2,TcHisRS
Cc1ncsc1CCN(C)C(=O)CN1C(=O)OC[C@@H]1c1ccccc1,5.033%,0.4646%,2.317%,-7.936%,6.627%
Cc1nn(C)c(Cl)c1CNCc1ccc(OCC(N)=O)cc1,-2.111%,2.07%,6.389%,-1.814%,-2.642%
Cc1ccnc(N2CCCC(c3nccn3C(C)C)C2)n1 (centres undefined),5.578%,11.92%,-3.342%,4.945%,6.704%

Source: ChEMBL document CHEMBL3988442, “University of Dundee, Small-Polar-MMV Screening Library” (2021).